# Measured values reported in PubChem BioAssay AID504467 (National Center for Advancing Translational Sciences (NCATS), 2011).
# In all, about 330,000 compounds went through this assay and about 7,700 (2.3%) were called active. Inconclusive means that the source gave no clear call. Such entries were picked first, then a sample of the others. Calls follow the shape of the dose curve; as a rule, active = well fitted inhibition curve with a large enough effect; inconclusive = small, poorly fitted or top-dose-only effect, or effect the other way; inactive = flat fitted curve, though single readings scatter. Potencies of inconclusive entries are doubtful fits and often do not repeat.
# Assay: qHTS screen for small molecules that inhibit ELG1-dependent DNA repair in human embryonic kidney (HEK293T) cells expressing luciferase-tagged ELG1; also: nearly all actives have a fitted effect of over 55% in size
# Conditions: HEK293T ELG1-luciferase reporter, luminescence, 16 h, DNA damage induced by 5-fluorouridine; activity change, negative = inhibition: at 46.1 µM (top of the series)
# Procedure, shortened: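 5-Fluorouridine DNA damage + compound/DMSO, 2,000 cells/well, 16 h, 37 °C/5% CO2. ONE-Glo, 30 min RT, luminescence. Readout = decrease in reporter signal.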
# % is scaled to controls: 0 for no effect and ±100 for the full control effect; potency is read from the fitted curve at half-maximal effect.
SMILES,Potency,"activity change, negative = inhibition"
CC(=O)N1c2c(cc(Br)cc2S(=O)(=O)N2CCN(C(=O)c3ccco3)CC2)CC1C (stereo not drawn),"inconclusive: 29.1 µM [inhibitor, single point]",
COc1ccc(C(=O)CSc2nc3ccc([N+](=O)[O-])cc3[nH]2)cc1,"inconclusive: 29.1 µM [inhibitor, single point]",
CCN(CC)CCN(C(=O)CCS(=O)(=O)c1ccccc1)c1nc2c(C)cc(C)cc2s1,,inactive: -0.102%
CN(c1cccc(NC(=O)c2ccc(CN3CCc4ccccc4C3)cc2)c1)S(C)(=O)=O,"inconclusive: 7.08 µM [inhibitor, partial curve]",
Cc1ccc(NC(=O)Nc2ccccc2)c(Br)c1,"inconclusive: 4.11 µM [activator, partial curve]",
Cn1c(SCc2n[nH]c(=S)n2-c2ccccc2)nnc1-c1ccccc1,,inactive: -0.0133%
CN(C)S(=O)(=O)N1CCC(CO)(CCc2ccccc2)CC1,"inconclusive: 23.1 µM [inhibitor, partial curve, poor fit]",
O=[N+]([O-])c1cccnc1Oc1ccc(OCc2ccccc2)cc1,"inconclusive: 20.6 µM [activator, single point]",
COc1ccccc1CNC(=O)c1ccc2nc(N3CCOCC3)sc2c1,,inactive: -3.25%
COCCOc1ccc(C(F)(F)F)cc1NC(=O)CN1C(=O)NC2(CCCc3ccccc32)C1=O (stereo not drawn),,inactive: -7.38%
COC(=O)C1CCN(C(=O)CCCOc2ccccc2)CC1,"inconclusive: 4.61 µM [activator, partial curve]",
O=C(N/N=C/c1cc2ccccc2nc1Cl)/C(=C/c1cccs1)NC(=O)c1ccccc1,"inconclusive: 20.6 µM [inhibitor, partial curve]",
Cc1ccc(Cl)cc1N(CC(=O)Nc1cccc(N(C)S(C)(=O)=O)c1)S(C)(=O)=O,"inconclusive: 18.3 µM [inhibitor, single point]",
COc1ccccc1N1C(=O)CSC1=NC(=O)c1ccccc1,,inactive: 28.8%
C=C(C)COc1ccc(-c2[nH]ncc2-c2ccccc2OC)c(O)c1,"inconclusive: 29.1 µM [inhibitor, single point]",
CCN(CC)S(=O)(=O)c1ccc(C(=O)OCC(=O)Nc2ccc(-c3nc4ccc(C)cc4s3)cc2)cc1,"inconclusive: 1.3 µM [activator, full curve]",
CCC(=O)N1CCc2cc(S(=O)(=O)NCCC(=O)N3CCc4ccccc4C3)ccc21,"inconclusive: 25.9 µM [inhibitor, single point]",
O=C(CCCn1c(=S)[nH]c2ccsc2c1=O)Nc1ccc2c(c1)OCO2,,inactive: 6.19%
Cc1c(C(=O)N(Cc2ccc(N(C)C)cc2)C2CCS(=O)(=O)C2)oc2ccccc12 (stereo not drawn),"inconclusive: 29.1 µM [inhibitor, partial curve, poor fit]",
CCOC(=O)CNC(=O)c1cc2c(=O)[nH]c3ccc(C)cc3c2s1,,inactive: 3.83%
Cn1c(=N)n(CC(O)c2ccccc2)c2ccccc21 (stereo not drawn),"inconclusive: 18.4 µM [activator, partial curve]",
CC(C)CNc1nc(N)c([N+](=O)[O-])c(NC2CCCCC2)n1,"inconclusive: 18.3 µM [activator, partial curve, poor fit]",

# Part of the list above in order of SMILES length, ascending.
SMILES,Potency,"activity change, negative = inhibition"
Cc1ccc(NC(=O)Nc2ccccc2)c(Br)c1,"inconclusive: 4.11 µM [activator, partial curve]",
Cn1c(=N)n(CC(O)c2ccccc2)c2ccccc21 (stereo not drawn),"inconclusive: 18.4 µM [activator, partial curve]",
COC(=O)C1CCN(C(=O)CCCOc2ccccc2)CC1,"inconclusive: 4.61 µM [activator, partial curve]",
CN(C)S(=O)(=O)N1CCC(CO)(CCc2ccccc2)CC1,"inconclusive: 23.1 µM [inhibitor, partial curve, poor fit]",
COc1ccccc1CNC(=O)c1ccc2nc(N3CCOCC3)sc2c1,,inactive: -3.25%
Cn1c(SCc2n[nH]c(=S)n2-c2ccccc2)nnc1-c1ccccc1,,inactive: -0.0133%
O=C(CCCn1c(=S)[nH]c2ccsc2c1=O)Nc1ccc2c(c1)OCO2,,inactive: 6.19%
COc1ccc(C(=O)CSc2nc3ccc([N+](=O)[O-])cc3[nH]2)cc1,"inconclusive: 29.1 µM [inhibitor, single point]",
CCC(=O)N1CCc2cc(S(=O)(=O)NCCC(=O)N3CCc4ccccc4C3)ccc21,"inconclusive: 25.9 µM [inhibitor, single point]",
CN(c1cccc(NC(=O)c2ccc(CN3CCc4ccccc4C3)cc2)c1)S(C)(=O)=O,"inconclusive: 7.08 µM [inhibitor, partial curve]",
CC(=O)N1c2c(cc(Br)cc2S(=O)(=O)N2CCN(C(=O)c3ccco3)CC2)CC1C (stereo not drawn),"inconclusive: 29.1 µM [inhibitor, single point]",
CCN(CC)S(=O)(=O)c1ccc(C(=O)OCC(=O)Nc2ccc(-c3nc4ccc(C)cc4s3)cc2)cc1,"inconclusive: 1.3 µM [activator, full curve]",

# (continued)

SMILES,Potency,"activity change, negative = inhibition"
COc1ccccc1-c1cc(C(=O)N2CCCC2)no1,"inconclusive: 8.2 µM [activator, partial curve]",
Cc1ccc(O)c(N=Nc2nccs2)c1,"inconclusive: 18.3 µM [activator, single point]",
Clc1ccc(OCCOCCN2CCc3ccccc3C2)c(Cl)c1,,inactive: -2.3%
CCOC(=O)c1c(C)[nH]c(C(=O)OCc2ccccc2F)c1C,"inconclusive: 2.31 µM [activator, full curve]",
O=C(NC(=S)Nc1ccccc1F)c1ccc(Br)o1,"inconclusive: 20.6 µM [activator, single point]",
CS(=O)(=O)N(CC(=O)Nc1ccc(Cl)c(Cl)c1)C1CCCCC1,"inconclusive: 23.1 µM [inhibitor, partial curve, poor fit]",
Cc1ccc(Nc2ncnc3c2oc2ccccc23)cc1,"inconclusive: 4.61 µM [activator, partial curve]",
COc1cc2ccccc2cc1C(=O)Nc1ccc(Br)cn1,"inconclusive: 2.91 µM [activator, partial curve]",
CO/N=C/C(=N\Nc1ccc(OC)cc1)C(=O)c1ccc(OC)cc1,"inconclusive: 16.4 µM [inhibitor, partial curve]",
NCCCn1c(C(=O)c2cc(Cl)c(N)c(Cl)c2)c2ccc([N+](=O)[O-])cc2[n+]1[O-],"inconclusive: 2.51 µM [inhibitor, partial curve]",
COc1ccc(-c2nnc(SC(C)C(=O)Nc3cccc(Cl)c3)o2)cc1 (stereo not drawn),"inconclusive: 10.3 µM [activator, partial curve]",
O=S(=O)(Nc1ccc(-c2nc3cccnc3s2)cc1)c1cc(F)ccc1F,"inconclusive: 18.3 µM [activator, partial curve]",
CCCC(=O)NC(Nc1cc(C(F)(F)F)ccc1Cl)C(Cl)(Cl)Cl (stereo not drawn),,inactive: -12.1%
COc1ccc(C2=NN(C(=O)/C=C/c3ccccc3)C(c3ccccc3)C2)c(OC(C)=O)c1 (stereo not drawn),"inconclusive: 18.4 µM [inhibitor, partial curve]",
CSc1ccc(S(=O)(=O)NCC(=O)OC2CCOC2=O)cc1[N+](=O)[O-] (stereo not drawn),,inactive: 5.73%
COc1ccccc1-n1cnnc1SCC(=O)Nc1cccc(S(=O)(=O)N2CCCCC2)c1,"inconclusive: 32.6 µM [inhibitor, partial curve, poor fit]",
O=C(NNc1nc(-c2ccc(Cl)cc2)cs1)c1ccco1,"inconclusive: 8.2 µM [activator, partial curve]",
O=C(COC(=O)c1ccco1)Nc1cccc(Br)c1,,inactive: 1.96%
CCC(C)[C@H](NC(=O)N1CCn2c1nc1ccccc12)C(=O)NCCc1ccc(OC)c(OC)c1 (stereo partly drawn),,inactive: -5.29%
COc1ccc(-c2cn3cc(C(F)(F)F)cc(Cl)c3n2)cc1,"inconclusive: 6.51 µM [activator, partial curve]",
CCOC(=O)C1CCN(C(=O)Cn2c(=O)c3cccn3c3cccnc32)CC1,,inactive: 1.86%
